This is one part of the list.
Tests used:
Test in all cases: log2 fold change, soluble protein after heating vs DMSO (PISA); higher = thermal stabilisation; K562 lysate, 10 uM; active = over 0.2 and 3.5 SD of the protein, either way, in both replicates (recomputed)
erlotinib = compound: C#Cc1cccc(Nc2ncnc3cc(OCCOC)c(OCCOC)cc23)c1 [erlotinib]
Procedure, shortened: (§1)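 The values are log-two fold changes in thermal stability compared with solvent controls and come from duplicates. They were obtained by TMTpro 16plex LC-MS/MS, with channel sums equalised, on the supernatant after 21,000xg for 90 min. That supernatant came from crude K562 extract at 1 mg/mL protein treated with 10 μM compound for 30 min, heated for 3 min across 48°C-58°C, pooled and brought to 0.5% NP-40 at 4°C.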

Sequences of proteins named here, by UniProt entry; tags and fusion partners are left off. A change or cut given only in a name is not applied to a line headed by its entry.
UniProt Q9NZB2: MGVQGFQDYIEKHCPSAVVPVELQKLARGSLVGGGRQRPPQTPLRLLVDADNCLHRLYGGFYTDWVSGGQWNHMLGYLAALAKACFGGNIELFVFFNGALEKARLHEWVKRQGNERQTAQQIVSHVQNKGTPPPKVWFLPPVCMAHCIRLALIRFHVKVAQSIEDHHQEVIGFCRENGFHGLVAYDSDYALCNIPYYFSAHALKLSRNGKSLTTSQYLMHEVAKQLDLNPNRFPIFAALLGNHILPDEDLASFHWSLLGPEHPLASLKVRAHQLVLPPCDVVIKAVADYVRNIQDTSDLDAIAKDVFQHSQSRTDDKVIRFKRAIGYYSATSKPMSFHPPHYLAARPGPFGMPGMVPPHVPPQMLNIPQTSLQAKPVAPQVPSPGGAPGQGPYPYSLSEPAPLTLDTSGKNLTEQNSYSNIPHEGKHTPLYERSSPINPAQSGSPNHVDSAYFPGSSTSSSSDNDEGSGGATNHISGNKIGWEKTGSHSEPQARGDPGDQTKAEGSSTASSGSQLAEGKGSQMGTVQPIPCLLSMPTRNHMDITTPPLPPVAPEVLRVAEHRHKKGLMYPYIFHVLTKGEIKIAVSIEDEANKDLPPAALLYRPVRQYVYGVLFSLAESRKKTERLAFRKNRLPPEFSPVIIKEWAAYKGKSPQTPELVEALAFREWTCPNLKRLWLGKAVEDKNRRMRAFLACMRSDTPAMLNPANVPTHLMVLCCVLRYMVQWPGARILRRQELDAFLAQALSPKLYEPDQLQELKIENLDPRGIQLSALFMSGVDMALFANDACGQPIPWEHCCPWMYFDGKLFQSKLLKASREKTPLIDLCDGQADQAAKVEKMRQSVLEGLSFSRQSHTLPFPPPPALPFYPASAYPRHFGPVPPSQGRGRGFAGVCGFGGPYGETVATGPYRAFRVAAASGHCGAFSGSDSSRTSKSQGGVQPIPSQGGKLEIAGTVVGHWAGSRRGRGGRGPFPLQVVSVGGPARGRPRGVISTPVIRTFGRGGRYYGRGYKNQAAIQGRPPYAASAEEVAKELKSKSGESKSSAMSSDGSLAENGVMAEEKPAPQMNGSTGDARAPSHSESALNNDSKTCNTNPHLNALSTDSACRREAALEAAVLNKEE
UniProt Q6IPR1: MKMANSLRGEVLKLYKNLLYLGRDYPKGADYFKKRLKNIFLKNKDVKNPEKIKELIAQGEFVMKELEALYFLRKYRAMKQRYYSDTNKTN
UniProt Q96RI0: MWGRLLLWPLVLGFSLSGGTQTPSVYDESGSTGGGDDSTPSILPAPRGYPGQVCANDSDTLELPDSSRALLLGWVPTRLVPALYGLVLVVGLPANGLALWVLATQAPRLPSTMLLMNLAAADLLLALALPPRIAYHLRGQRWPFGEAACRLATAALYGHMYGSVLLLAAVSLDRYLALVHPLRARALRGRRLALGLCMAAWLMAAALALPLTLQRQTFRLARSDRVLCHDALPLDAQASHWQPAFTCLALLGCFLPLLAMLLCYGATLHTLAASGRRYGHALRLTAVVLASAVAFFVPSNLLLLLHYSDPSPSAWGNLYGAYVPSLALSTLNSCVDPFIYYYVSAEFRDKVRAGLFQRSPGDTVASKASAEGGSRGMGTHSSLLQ
UniProt Q99504: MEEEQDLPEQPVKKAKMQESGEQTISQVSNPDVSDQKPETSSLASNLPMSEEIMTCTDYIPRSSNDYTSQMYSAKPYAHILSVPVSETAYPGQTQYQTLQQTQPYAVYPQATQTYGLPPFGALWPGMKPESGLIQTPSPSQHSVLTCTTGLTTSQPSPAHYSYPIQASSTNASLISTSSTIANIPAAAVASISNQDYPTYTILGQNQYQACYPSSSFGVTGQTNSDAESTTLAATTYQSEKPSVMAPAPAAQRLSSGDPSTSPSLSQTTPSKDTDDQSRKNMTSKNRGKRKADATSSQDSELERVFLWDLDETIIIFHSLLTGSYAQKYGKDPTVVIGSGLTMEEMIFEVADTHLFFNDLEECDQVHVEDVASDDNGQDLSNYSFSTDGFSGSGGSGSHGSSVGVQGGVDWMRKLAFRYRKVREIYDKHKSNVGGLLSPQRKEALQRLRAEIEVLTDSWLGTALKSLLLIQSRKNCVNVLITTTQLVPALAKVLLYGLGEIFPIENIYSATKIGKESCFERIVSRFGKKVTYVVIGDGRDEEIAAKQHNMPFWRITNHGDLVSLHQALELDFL
UniProt Q9Y421: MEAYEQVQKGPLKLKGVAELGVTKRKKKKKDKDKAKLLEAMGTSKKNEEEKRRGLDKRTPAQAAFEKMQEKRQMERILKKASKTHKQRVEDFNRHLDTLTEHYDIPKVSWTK
UniProt Q15024, whole entry, looked up: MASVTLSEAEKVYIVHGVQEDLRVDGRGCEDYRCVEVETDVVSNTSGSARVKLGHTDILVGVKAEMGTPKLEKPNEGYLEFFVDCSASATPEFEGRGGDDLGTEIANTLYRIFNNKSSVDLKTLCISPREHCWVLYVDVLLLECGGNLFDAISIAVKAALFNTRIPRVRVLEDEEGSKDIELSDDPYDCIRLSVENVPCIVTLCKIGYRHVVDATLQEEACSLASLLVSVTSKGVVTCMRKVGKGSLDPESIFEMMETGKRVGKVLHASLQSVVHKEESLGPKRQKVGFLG
UniProt Q8N0U4: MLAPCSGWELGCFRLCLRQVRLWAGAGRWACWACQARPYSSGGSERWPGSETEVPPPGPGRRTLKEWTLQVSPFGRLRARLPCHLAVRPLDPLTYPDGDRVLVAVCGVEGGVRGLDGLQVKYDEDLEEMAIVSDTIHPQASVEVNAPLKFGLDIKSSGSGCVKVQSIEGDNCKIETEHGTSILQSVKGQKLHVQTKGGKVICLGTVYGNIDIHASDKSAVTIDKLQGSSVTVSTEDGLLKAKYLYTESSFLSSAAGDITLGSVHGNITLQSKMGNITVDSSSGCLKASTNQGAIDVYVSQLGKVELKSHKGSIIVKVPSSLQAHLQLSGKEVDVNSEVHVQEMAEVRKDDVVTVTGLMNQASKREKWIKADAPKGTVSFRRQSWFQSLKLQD
UniProt Q5T8I3: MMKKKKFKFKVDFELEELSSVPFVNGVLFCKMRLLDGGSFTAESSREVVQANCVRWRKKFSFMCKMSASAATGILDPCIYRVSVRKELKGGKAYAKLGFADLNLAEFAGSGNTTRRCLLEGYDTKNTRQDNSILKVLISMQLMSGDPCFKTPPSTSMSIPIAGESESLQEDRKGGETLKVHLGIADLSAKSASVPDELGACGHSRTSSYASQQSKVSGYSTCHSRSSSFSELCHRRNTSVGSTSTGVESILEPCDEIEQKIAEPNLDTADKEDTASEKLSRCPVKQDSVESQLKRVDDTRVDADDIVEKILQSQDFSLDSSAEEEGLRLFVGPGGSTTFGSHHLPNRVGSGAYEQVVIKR
UniProt Q14320: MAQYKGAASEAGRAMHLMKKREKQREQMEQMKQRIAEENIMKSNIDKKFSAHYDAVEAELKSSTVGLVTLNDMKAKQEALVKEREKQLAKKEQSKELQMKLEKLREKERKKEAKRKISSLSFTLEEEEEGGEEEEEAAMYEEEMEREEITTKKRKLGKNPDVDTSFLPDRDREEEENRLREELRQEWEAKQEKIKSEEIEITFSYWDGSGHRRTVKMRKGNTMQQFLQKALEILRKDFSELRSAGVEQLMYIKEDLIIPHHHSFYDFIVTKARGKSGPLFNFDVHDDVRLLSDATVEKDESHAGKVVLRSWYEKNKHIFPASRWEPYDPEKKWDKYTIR
UniProt O43909: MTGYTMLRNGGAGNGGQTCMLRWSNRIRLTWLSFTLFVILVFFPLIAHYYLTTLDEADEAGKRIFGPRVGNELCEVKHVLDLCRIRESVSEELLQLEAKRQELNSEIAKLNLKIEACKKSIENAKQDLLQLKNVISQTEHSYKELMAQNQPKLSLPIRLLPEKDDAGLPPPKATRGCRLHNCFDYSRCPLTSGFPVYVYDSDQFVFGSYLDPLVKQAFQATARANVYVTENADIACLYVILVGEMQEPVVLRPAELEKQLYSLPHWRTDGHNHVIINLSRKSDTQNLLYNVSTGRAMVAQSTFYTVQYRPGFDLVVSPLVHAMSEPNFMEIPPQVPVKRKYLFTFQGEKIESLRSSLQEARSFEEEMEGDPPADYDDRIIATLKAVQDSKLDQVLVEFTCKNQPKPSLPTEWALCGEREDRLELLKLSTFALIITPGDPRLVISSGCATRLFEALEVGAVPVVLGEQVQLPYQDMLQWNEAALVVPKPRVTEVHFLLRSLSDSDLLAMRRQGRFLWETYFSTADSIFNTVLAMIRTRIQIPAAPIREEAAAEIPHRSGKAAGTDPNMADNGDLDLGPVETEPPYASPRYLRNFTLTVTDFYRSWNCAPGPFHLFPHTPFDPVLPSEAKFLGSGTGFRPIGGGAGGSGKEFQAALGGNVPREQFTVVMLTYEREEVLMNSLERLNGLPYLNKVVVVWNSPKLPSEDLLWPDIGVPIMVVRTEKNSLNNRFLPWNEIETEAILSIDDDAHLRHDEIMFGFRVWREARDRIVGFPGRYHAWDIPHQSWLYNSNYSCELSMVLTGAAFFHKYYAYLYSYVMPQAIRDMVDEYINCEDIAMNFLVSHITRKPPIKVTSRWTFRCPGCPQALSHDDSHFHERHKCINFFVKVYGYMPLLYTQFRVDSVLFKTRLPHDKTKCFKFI
UniProt P15311, whole entry, looked up: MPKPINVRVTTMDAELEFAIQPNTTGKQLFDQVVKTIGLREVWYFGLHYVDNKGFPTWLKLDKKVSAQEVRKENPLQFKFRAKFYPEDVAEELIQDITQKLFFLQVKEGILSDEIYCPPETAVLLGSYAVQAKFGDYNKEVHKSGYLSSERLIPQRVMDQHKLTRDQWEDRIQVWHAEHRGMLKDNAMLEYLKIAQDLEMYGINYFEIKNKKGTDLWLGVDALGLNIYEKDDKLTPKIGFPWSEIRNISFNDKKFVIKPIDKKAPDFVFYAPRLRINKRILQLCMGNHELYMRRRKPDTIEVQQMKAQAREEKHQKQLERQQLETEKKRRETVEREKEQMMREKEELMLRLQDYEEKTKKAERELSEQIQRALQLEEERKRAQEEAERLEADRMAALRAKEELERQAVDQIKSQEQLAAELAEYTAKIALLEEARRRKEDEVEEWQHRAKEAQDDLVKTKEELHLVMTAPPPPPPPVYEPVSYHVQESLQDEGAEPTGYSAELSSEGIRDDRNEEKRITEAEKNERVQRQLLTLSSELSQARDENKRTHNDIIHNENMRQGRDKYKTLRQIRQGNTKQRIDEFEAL
UniProt Q96EK7: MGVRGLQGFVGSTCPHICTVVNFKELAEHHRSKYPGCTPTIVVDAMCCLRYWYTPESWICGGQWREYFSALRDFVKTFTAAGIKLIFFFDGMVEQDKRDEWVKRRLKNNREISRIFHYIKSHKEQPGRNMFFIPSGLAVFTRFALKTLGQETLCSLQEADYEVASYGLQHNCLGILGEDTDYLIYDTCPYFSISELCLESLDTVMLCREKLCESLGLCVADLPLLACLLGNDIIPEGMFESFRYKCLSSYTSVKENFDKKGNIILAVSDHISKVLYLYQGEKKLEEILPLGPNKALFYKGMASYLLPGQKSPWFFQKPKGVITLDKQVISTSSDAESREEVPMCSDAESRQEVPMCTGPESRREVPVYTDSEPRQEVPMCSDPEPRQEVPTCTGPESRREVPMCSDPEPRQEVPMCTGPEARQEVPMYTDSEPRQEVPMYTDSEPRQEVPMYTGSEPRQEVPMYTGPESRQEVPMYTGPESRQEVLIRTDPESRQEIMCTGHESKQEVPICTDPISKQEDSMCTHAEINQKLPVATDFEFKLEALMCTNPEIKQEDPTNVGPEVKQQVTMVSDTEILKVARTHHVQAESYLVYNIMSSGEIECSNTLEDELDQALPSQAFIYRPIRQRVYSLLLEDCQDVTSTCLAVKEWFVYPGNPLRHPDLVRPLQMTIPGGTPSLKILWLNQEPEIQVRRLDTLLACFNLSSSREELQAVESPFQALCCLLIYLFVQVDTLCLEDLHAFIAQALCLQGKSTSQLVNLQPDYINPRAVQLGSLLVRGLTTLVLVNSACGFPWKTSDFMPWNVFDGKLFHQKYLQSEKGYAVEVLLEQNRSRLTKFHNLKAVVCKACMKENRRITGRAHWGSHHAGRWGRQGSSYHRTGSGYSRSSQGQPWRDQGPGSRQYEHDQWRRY
UniProt P43268: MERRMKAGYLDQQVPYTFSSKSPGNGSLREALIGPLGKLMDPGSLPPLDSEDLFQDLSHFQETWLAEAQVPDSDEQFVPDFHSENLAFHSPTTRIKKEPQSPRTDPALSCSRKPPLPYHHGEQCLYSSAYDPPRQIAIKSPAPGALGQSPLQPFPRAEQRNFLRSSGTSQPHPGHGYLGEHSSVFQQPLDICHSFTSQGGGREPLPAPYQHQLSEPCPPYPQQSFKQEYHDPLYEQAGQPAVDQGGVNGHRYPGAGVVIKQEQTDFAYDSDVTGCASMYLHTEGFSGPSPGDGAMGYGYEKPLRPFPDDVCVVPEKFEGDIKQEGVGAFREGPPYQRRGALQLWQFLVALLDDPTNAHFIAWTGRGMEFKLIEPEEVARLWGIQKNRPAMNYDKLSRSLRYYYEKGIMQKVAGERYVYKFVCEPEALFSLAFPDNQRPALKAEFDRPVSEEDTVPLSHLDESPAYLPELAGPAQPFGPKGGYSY

[1] = compound: C/C(=N\NC(=O)C1=CC(=CC=C1)S(=O)(=O)N2CCOCC2)/C3=C(C=CC(=C3)Cl)O
Procedure, shortened: as §1

[2] = compound: C1=CC(=CC=C1C2=NC3=C(N2)C=C(C=C3)C(=O)N)OC4=CC=C(C=C4)Cl
Procedure, shortened: as §1

[3] = compound: C1=CC2=C(C=CC(=C2)/C=C\3/C(=O)NC(=NCC4=CC=CS4)S3)N=C1
Procedure, shortened: as §1

[4] = compound: C1=CC2=NC=CN=C2C=C1/C=C/3\C(=O)NC(=O)S3
Procedure, shortened: as §1

[5] = compound: C1=CC=C(C=C1)C2=NC(=C(N2)C3=CC=NC=C3)C4=CC(=C(C=C4)Cl)O
Procedure, shortened: as §1

[6] = compound: C1=CC=C2C(=C1)C3=NNC4=CC=CC(=C43)C2=O
Procedure, shortened: as §1

[7] = compound: C1CCN(C1)C(=O)NC2=CC=CC(=C2)NC3=NC=C(C(=N3)NCCC4=CN=CN4)Br
Procedure, shortened: as §1

[8] = compound: C1CN(CCC1(CC2=CC=C(C=C2)Cl)N)C3=NC=NC4=C3C=CN4
Procedure, shortened: as §1

IRAK-1-4 Inhibitor I = compound: C1COCCN1CCN2C3=CC=CC=C3N=C2NC(=O)C4=CC(=CC=C4)[N+](=O)[O-] [IRAK-1-4 Inhibitor I]
Procedure, shortened: as §1

ibrutinib = compound: C=CC(=O)N1CCC[C@@H](n2nc(-c3ccc(Oc4ccccc4)cc3)c3c(N)ncnc32)C1 [ibrutinib]
Procedure, shortened: as §1

[9] = compound: CC(=O)c1cnc2ccc(-c3cc(Cl)c(O)c(Cl)c3)nc2c1N[C@H]1CC[C@H](CN(C)C)CC1
Procedure, shortened: as §1

ralimetinib = compound: CC(C)(C)Cn1c(N)nc2ccc(-c3[nH]c(C(C)(C)C)nc3-c3ccc(F)cc3)nc21 [ralimetinib]
Procedure, shortened: as §1

[10] = compound: CC(C)(O)CC(=O)NCCn1ccc2ncnc(Nc3ccc(Oc4cccc(C(F)(F)F)c4)c(Cl)c3)c21
Procedure, shortened: as §1

[11] = compound: CC(C)C1=C2N=C(C=C(N2N=C1)NCC3=CC=CC=C3)NCCCCCCN
Procedure, shortened: as §1

[12] = compound: CC1=C(C(CC(=O)N1)C2=CC=C(C=C2)C(F)(F)F)C(=O)NC3=C(C=C4C(=C3)C=NN4)F
Procedure, shortened: as §1

[13] = compound: CC1=C(C2=C(C=C1)C(=O)C3=CC=CC=C3N2CCCN)C
Procedure, shortened: as §1

[14] = compound: CC1=C(C=C(C=C1)NC(=O)C2=CC(=CC=C2)C(C)(C)C#N)NC3=CC4=C(C=C3)N=CN(C4=O)C
Procedure, shortened: as §1

[15] = compound: CC1=C(C=C(C=C1)NC(=O)C2=CC(=CC=C2)N(C)C)NC(=O)C3=CC=C(C=C3)O
Procedure, shortened: as §1

[16] = compound: CC1=CC=C(C=C1)SC2=C3C=C(SC3=CN=C2)C(=O)N
Procedure, shortened: as §1

Measured: log2 fold change

FAM120A isoform 6 (UniProt Q9NZB2)
inactive: erlotinib -0.011 | [1] -0.058 | [2] 0.026 | [3] 0.023 | [4] 0.009 | [5] 0.002 | [6] 0.002 | [7] -0.023 | [8] 0.017 | IRAK-1-4 Inhibitor I 0.031 | ibrutinib -0.023 | [9] -0.042 | ralimetinib -0.001 | [10] -0.065 | [11] 0.026 | [12] -0.007 | [13] -0.037 | [14] -0.013 | [15] 0.03 | [16] 0.002

FAM204A (UniProt Q9H8W3)
inactive: erlotinib -0.021 | [1] -0.018 | [2] -0.014 | [3] 0.11 | [5] 0.018 | [6] -0.008 | IRAK-1-4 Inhibitor I 0.01 | ralimetinib -0.12 | [10] 0.061 | [11] -0.117 | [14] 0.174 | [15] -0.002

ETFRF1 (UniProt Q6IPR1)
inactive: erlotinib -0.032 | [1] -0.008 | [2] -0.048 | [3] 0.083 | [4] -0.064 | [5] -0.038 | [6] -0.063 | IRAK-1-4 Inhibitor I -0.002 | ibrutinib 0.062 | [9] 0.028 | ralimetinib -0.005 | [10] -0.044 | [11] -0.006 | [12] 0.049 | [13] -0.018 | [14] -0.071 | [15] 0.136 | [16] -0.02

F2RL3 (UniProt Q96RI0)
inactive: erlotinib -0.039 | [1] 0.003 | [2] 0.043 | [3] 0.059 | [5] 0.064 | [6] -0.102 | IRAK-1-4 Inhibitor I 0.024 | [9] 0.019 | ralimetinib -0.03 | [10] -0.183 | [11] -0.092 | [12] 0.104 | [13] 0.038 | [15] -0.039 | [16] -0.097

FAM241A (UniProt Q8N8J7)
inactive: erlotinib 0.019 | [1] 0.008 | [2] -0.032 | [3] -0.028 | [4] -0.057 | [5] -0.073 | [6] -0.015 | [7] 0.015 | [8] 0.052 | IRAK-1-4 Inhibitor I -0.015 | ibrutinib 0.07 | [9] -0.046 | ralimetinib 0.008 | [10] 0.023 | [11] 0.004 | [13] 0.011 | [14] -0.029 | [15] 0.003 | [16] 0.009

FAM177A1 isoform 2 (UniProt Q8N128)
inactive: erlotinib 0.038 | [1] 0.106 | [2] -0.028 | [3] 0.045 | [4] 0.015 | [5] 0.021 | [6] -0.009 | IRAK-1-4 Inhibitor I -0.057 | ibrutinib 0.014 | [9] -0.022 | ralimetinib 0.03 | [10] -0.1 | [11] 0.008 | [12] 0.049 | [13] -0.017 | [14] 0.035 | [15] 0.061 | [16] -0.052

Two entries picked at random from the list so far:
FAM177A1 isoform 2 (UniProt Q8N128)
inactive: erlotinib 0.038 | [1] 0.106 | [2] -0.028 | [3] 0.045 | [4] 0.015 | [5] 0.021 | [6] -0.009 | IRAK-1-4 Inhibitor I -0.057 | ibrutinib 0.014 | [9] -0.022 | ralimetinib 0.03 | [10] -0.1 | [11] 0.008 | [12] 0.049 | [13] -0.017 | [14] 0.035 | [15] 0.061 | [16] -0.052

FAM204A (UniProt Q9H8W3)
inactive: erlotinib -0.021 | [1] -0.018 | [2] -0.014 | [3] 0.11 | [5] 0.018 | [6] -0.008 | IRAK-1-4 Inhibitor I 0.01 | ralimetinib -0.12 | [10] 0.061 | [11] -0.117 | [14] 0.174 | [15] -0.002

Later entries.

EYA3 (UniProt Q99504)
inactive: erlotinib 0.034 | [1] -0.112 | [2] -0.014 | [3] -0.005 | [4] -0.04 | [5] -0.08 | [6] -0.048 | [7] -0.161 | [8] 0.06 | IRAK-1-4 Inhibitor I 0.002 | ibrutinib 0.037 | [9] -0.008 | ralimetinib 0.059 | [10] -0.087 | [11] 0.003 | [12] 0.041 | [13] 0.072 | [14] 0.029 | [15] -0.006 | [16] -0.037

FAM32A (UniProt Q9Y421)
inactive: erlotinib 0.013 | [1] -0.118 | [2] 0.026 | [3] 0.002 | [4] -0.101 | [5] 0.039 | [6] -0.009 | [7] -0.067 | [8] 0.005 | IRAK-1-4 Inhibitor I -0.047 | ibrutinib 0.109 | ralimetinib -0.035 | [10] 0.063 | [11] 0.012 | [13] -0.027 | [14] 0.069 | [15] 0.027

ERP29 (UniProt P30040)
inactive: erlotinib -0.021 | [1] 0.031 | [2] 0.008 | [3] 0.007 | [4] -0.004 | [5] 0.007 | [6] 0.042 | [7] 0.022 | [8] 0.023 | IRAK-1-4 Inhibitor I -0.009 | ibrutinib -0.001 | [9] 0.018 | ralimetinib -0.031 | [10] 0.041 | [11] -0.008 | [12] -0.022 | [13] 0.027 | [14] -0.021 | [15] 0 | [16] 0.028

EXOSC7 (UniProt Q15024)
inactive: erlotinib -0.012 | [1] 0.033 | [2] 0.001 | [3] -0.012 | [4] 0.002 | [5] -0.006 | [6] 0.009 | [7] -0.023 | [8] 0.017 | IRAK-1-4 Inhibitor I -0.011 | ibrutinib 0.022 | [9] -0.014 | ralimetinib -0.001 | [10] -0.018 | [11] -0.01 | [12] 0.011 | [13] -0.064 | [14] 0.022 | [15] -0.039 | [16] -0.01

FAM185A (UniProt Q8N0U4)
inactive: erlotinib 0.2 | [1] -0.276 | [2] 0.055 | [3] -0.448 | [4] 0.016 | [5] -0.002 | [6] 0.04 | IRAK-1-4 Inhibitor I 0.025 | ibrutinib 0.016 | [9] 0.02 | ralimetinib 0.018 | [10] -0.083 | [11] -0.129 | [13] -0.069 | [14] 0.047 | [15] -0.052 | [16] 0.044

FAM102B (UniProt Q5T8I3)
inactive: erlotinib -0.158 | [1] -0.037 | [2] 0.196 | [3] -0.111 | [4] -0.165 | [6] 0.031 | [7] 0.039 | [8] -0.105 | ibrutinib -0.024 | [9] -0.027 | [11] -0.187 | [14] 0.048 | [16] 0.06

FAM50A (UniProt Q14320)
inactive: erlotinib -0.058 | [1] -0.019 | [2] -0.004 | [3] -0.023 | [4] -0.029 | [5] -0.016 | [6] 0.031 | [7] 0.021 | [8] -0.02 | IRAK-1-4 Inhibitor I -0.036 | ibrutinib 0.005 | [9] -0.017 | ralimetinib 0.052 | [10] 0.027 | [11] -0.016 | [12] 0.014 | [13] -0.001 | [14] -0.035 | [15] -0.028 | [16] -0.03

EXTL3 (UniProt O43909)
inactive: erlotinib 0.053 | [1] -0.258 | [2] -0.071 | [3] 0.217 | [5] -0.022 | [6] -0.197 | IRAK-1-4 Inhibitor I -0.02 | [9] 0.031 | ralimetinib 0.007 | [10] 0.079 | [11] -0.068 | [13] -0.034 | [14] -0.026 | [15] 0.02 | [16] 0.095

EZR (UniProt P15311)
inactive: erlotinib -0.029 | [1] 0.019 | [2] 0.014 | [3] -0.009 | [4] -0.025 | [5] 0 | [6] 0.024 | [7] 0.002 | [8] 0.001 | IRAK-1-4 Inhibitor I -0.007 | ibrutinib 0.017 | [9] -0.009 | ralimetinib -0.026 | [10] 0.006 | [11] -0.003 | [12] -0.012 | [13] 0 | [14] -0.007 | [15] -0.004 | [16] 0.001

ETNK1 (UniProt Q9HBU6)
inactive: erlotinib -0.005 | [1] -0.053 | [2] 0.08 | [3] -0.03 | [4] 0.02 | [5] -0.007 | [6] -0.013 | [7] -0.03 | [8] 0.036 | IRAK-1-4 Inhibitor I -0.04 | ibrutinib -0.014 | [9] -0.027 | ralimetinib -0.026 | [10] -0.01 | [11] -0.02 | [12] -0.045 | [13] 0.009 | [14] 0.013 | [15] 0.025 | [16] -0.02

FAM120B (UniProt Q96EK7)
inactive: erlotinib 0.056 | [1] -0.032 | [2] 0.036 | [3] 0.035 | [4] 0.02 | [5] -0.004 | [6] 0.044 | [7] -0.013 | [8] 0.007 | IRAK-1-4 Inhibitor I 0.009 | ibrutinib 0.023 | [9] -0.003 | ralimetinib 0.035 | [10] -0.013 | [11] 0.031 | [12] -0.028 | [13] 0.002 | [14] 0.008 | [15] 0.041 | [16] 0.012

ETV4 (UniProt P43268)
inactive: erlotinib 0.038 | [1] 0.371 | [2] 0.027 | [3] 0.015 | [5] -0.032 | [6] -0.027 | [7] 0.033 | [8] 0.25 | IRAK-1-4 Inhibitor I 0.118 | ralimetinib 0.12 | [10] -0.007 | [11] 0.015 | [12] 0.099 | [14] -0.05 | [15] -0.014
